In the supplement of paper PMC6078165:

Assays:
Experiment in all cases: relative JC-1 red fluorescence (viability) vs pre-drug, monoculture (fraction); higher = more viable cancer cells
Settings in all cases: coculture fibroblast: none (monoculture)
BT20 = test system: BT20
Description: (§1)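 JC-1 labelled TNBC cells grown in monoculture (density kept equal with unlabelled cancer cells) in 384-well plates in FluoroBrite medium, treated with one of 42 anticancer drugs at 0.1, 1, 10 or 100 uM. JC-1 red fluorescence (mitochondrial integrity, surrogate of apoptotic death) was read by plate reader every 8 h for 72 h. Values are normalised to each well's pre-drug value, with background from alamethicin. The stock of one drug was tenfold lower, so its dose labels may be too high. Monoculture values are repeated alongside each fibroblast plate and are averaged here.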

MDAMB231 = test system: MDAMB231
Description: as §1

MDAMB468 = test system: MDAMB468
Description: as §1

MDAMB436 = test system: MDAMB436
Description: as §1

CCC1=C[C@@H]2CN(C1)Cc1c([nH]c3ccccc13)[C@@](C(=O)OC)(c1cc3c(cc1OC)N(C)[C@H]1[C@@](O)(C(=O)OC)[C@H](OC(C)=O)[C@]4(CC)C=CCN5CC[C@]31[C@@H]54)C2 [Vinorelbine]
relative JC-1 red fluorescence
Settings | 8 h | 16 h | 24 h | 32 h | 40 h | 48 h | 56 h | 64 h | 72 h
BT20, 0.1 µM | 0.955 | 0.911 | 0.795 | 0.725 | 0.685 | 0.639 | 0.599 | 0.5839 | 0.5564
BT20, 1 µM | 0.9555 | 0.9136 | 0.832 | 0.763 | 0.714 | 0.696 | 0.669 | 0.646 | 0.62
BT20, 10 µM | 0.9466 | 0.917 | 0.865 | 0.813 | 0.771 | 0.747 | 0.711 | 0.683 | 0.646
BT20, 100 µM | 0.504 | 0.309 | 0.243 | 0.16 | 0.124 | 0.104 | 0.0774 | 0.0606 | 0.0459
MDAMB231, 0.1 µM | 0.749 | 0.682 | 0.693 | 0.599 | 0.574 | 0.566 | 0.557 | 0.594 | 0.592
MDAMB231, 1 µM | 0.7737 | 0.762 | 0.653 | 0.624 | 0.584 | 0.549 | 0.51 | 0.505 | 0.483
MDAMB231, 10 µM | 0.7435 | 0.768 | 0.653 | 0.715 | 0.6784 | 0.62 | 0.5732 | 0.545 | 0.518
MDAMB231, 100 µM | 0.526 | 0.357 | 0.242 | 0.154 | 0.107 | 0.0953 | 0.0863 | 0.0809 | 0.0777
MDAMB436, 0.1 µM | 0.899 | 0.819 | 0.844 | 0.792 | 0.805 | 0.791 | 0.802 | 0.805 | 0.818
MDAMB436, 1 µM | 0.9073 | 0.854 | 0.845 | 0.7954 | 0.796 | 0.76 | 0.742 | 0.731 | 0.715
MDAMB436, 10 µM | 0.853 | 0.787 | 0.795 | 0.746 | 0.726 | 0.697 | 0.671 | 0.637 | 0.621
MDAMB436, 100 µM | 0.686 | 0.498 | 0.356 | 0.255 | 0.216 | 0.179 | 0.15 | 0.125 | 0.104
MDAMB468, 0.1 µM | 0.918 | 0.888 | 0.798 | 0.745 | 0.7 | 0.662 | 0.636 | 0.607 | 0.592
MDAMB468, 1 µM | 0.9461 | 0.906 | 0.877 | 0.816 | 0.787 | 0.771 | 0.7267 | 0.6928 | 0.6812
MDAMB468, 10 µM | 0.9165 | 0.878 | 0.838 | 0.7682 | 0.729 | 0.70528 | 0.6728 | 0.638 | 0.618
MDAMB468, 100 µM | 0.452 | 0.255 | 0.176 | 0.122 | 0.0887 | 0.0703 | 0.0423 | 0.0247 | 0.0192

Values are relative to the signal before dosing, not to a vehicle control; the signal also falls without drug.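 The tumor cells are basal-like or mesenchymal-like triple-negative breast cancer lines cultured without fibroblasts. Reduced red signal indicates lost mitochondrial integrity, serving as a proxy for apoptotic death.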
